# Laboratory results: PubChem BioAssay AID504786 (Drosophila RNAi Screening Center, 2011)
# Test: 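Fly genes required for HIF-dependent transcription when hypoxia is mimicked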 (primary screen)
# Cells: Drosophila S2 cells with a stable HIF luciferase reporter
# Reagent: long dsRNA against Drosophila genes, about 0.2 µg dsRNA per well of a 384-well plate
# Time to read-out: three days of knock-down, then 20 h of DFO before reading
# Challenge: desferrioxamine (DFO) at 100 µM, an iron chelator that mimics hypoxia, for 20 h
# Measurement: 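HIF reporter luminescence in cells given 100 µM DFO for 20 h, using the mouse ldh-a hypoxia-response element, scored as per-plate z-scores; higher means greater loss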
# Scale: z-score: higher = stronger loss of HIF reporter signal
# The deposit covers about 21,000 reagents; this is an unselected part of those with a known target gene and a result. 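Primary screen; positive scores mean lost reporter signal, so the sign may be inverted from the usual convention.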 Names joined by + are all predicted targets of the reagent. Further read-outs or replicates are left out here.
Target gene,amplicon,"z-score, replicate 1"
Jon99Fii,DRSC15430,-0.6
CG33775,DRSC05353,-0.2
CG13053,DRSC09934,-0.2
lbk,DRSC07178,-0.3
CROT,DRSC14518,-0.1
CROT,DRSC14519,-0.6
RpL32,DRSC16835,5.2
icln,DRSC07630,0
Lamtor1,DRSC10183,-0.3
alphaCOP,DRSC08706,-0.3
Acp53C14b,DRSC06569,0
Eip93F,DRSC13527,-0.7
Eip93F,DRSC16661,-0.5
lncRNA:CR42646,DRSC04759,-0.4
eIF2Bbeta,DRSC18465,-0.1
hbn,DRSC04082,2.6
hbn,DRSC04238,-0.1
hbn,DRSC04239,-0.4
SLC5A11,DRSC03088,-0.3
Ntf-2r,DRSC02019,-0.1
crb,DRSC16927,-0.2
CG10631,DRSC02081,-0.4
CG14500,DRSC06471,-0.3
CG43367,DRSC08299,-0.4
CG43367,DRSC08301,-0.3
CG43367,DRSC08309,-0.2
Vha36-3,DRSC18615,-0.3
ND-23,DRSC15526,-0.1
CG11168,DRSC14292,-0.2
bisc,DRSC04083,0.1
mil,DRSC15696,-0.2
Gr39a,DRSC01841,1.5
Gr39a,DRSC01842,1.2
CG3552,DRSC10370,-0.3
CG6839,DRSC10723,-0.3
MED18,DRSC18549,-0.4
CG11878,DRSC14422,0
CG42238,DRSC03180,-0.3
HIPP1,DRSC11748,-0.4
CG32109,DRSC09816,-0.2
CG32182,DRSC09508,-0.2
Sf3a1,DRSC15166,5.4
CG10098,DRSC12509,-0.4
Pp2B-14D,DRSC20270,1.9
CG32564,DRSC19933,-0.4
Bap111,DRSC18419,-0.3
CG6674,DRSC10692,-0.1
RpS21,DRSC00833,4.6
Rm62,DRSC12365,1.8
CG15818,DRSC02505,-0.3
Met75Ca + Met75Cb,DRSC09549,-0.4
Met75Ca + Met75Cb,DRSC11221,-0.4
ND-18,DRSC19441,-0.2
CG12835 (retired record),DRSC06181,-0.3
CG9667,DRSC16535,0.1
CG6428,DRSC18402,-0.3

No new results follow: 3 of the entries above.
Target gene,amplicon,"z-score, replicate 1"
hbn,DRSC04238,-0.1
hbn,DRSC04239,-0.4
SLC5A11,DRSC03088,-0.3
